Record: PubChem BioAssay AID1259254 (NCATS, 2017)
Here is an unselected part of about 59,000 reagents tested. Over the whole deposit, about 1,550 (2.6%) are marked active. 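G2 share is only a proxy for re-replication; each gene was hit by three separate siRNAs, and active genes were retested.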 The numbers tell different reagents against one gene apart. Not all columns of the deposit are shown. Not stated in the record: the amount of reagent.

Purpose: 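Finding genes that stop cells copying their DNA twice in one cycle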 (primary screen)
Cells: human HCT116 colorectal cancer cells
Knock-down reagent: single siRNA against human genes
Timing: 3 days
Measurement: 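Imaged Hoechst DNA stain sorts each cell into a cycle phase by DNA amount; per plate, G2 fraction set to 0% for non-targeting and 100% for GMNN siRNA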
Scale: G2 robust z-score and G2 cells, % of GMNN control: higher = more G2 cells, more excess DNA replication
Hit rule: 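An siRNA counts as active if its G2 robust z-score lies at least 5 MADs above the screen median; here such calls match roughly 38% of GMNN control or more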

Silencing of FOSL2 (GeneID 2355) #1 resulted in: G2 robust z-score 0.127; G2 cells, % of GMNN control 3.86; inactive.
With knock-down of FOSL2 (GeneID 2355) #2, the screen gave G2 robust z-score 1.85; G2 cells, % of GMNN control 16; inactive.
Against FOSL2 (GeneID 2355) #3, the entry reads G2 robust z-score 0.948; G2 cells, % of GMNN control 9.64; inactive.
With knock-down of CRYGS (GeneID 1427) #1, the record shows G2 robust z-score 0.675; G2 cells, % of GMNN control 7.72; inactive.
Against CRYGS (GeneID 1427) #2, the values are G2 robust z-score -0.218; G2 cells, % of GMNN control 1.43; inactive.
CRYGS (GeneID 1427) #3 scored G2 robust z-score 2.89; G2 cells, % of GMNN control 23.3; inactive.
After knock-down of SPAG9 (GeneID 9043) #1, the record shows G2 robust z-score -1.01; G2 cells, % of GMNN control -4.13; inactive.
Knock-down of SPAG9 (GeneID 9043) #2 resulted in: G2 robust z-score -0.252; G2 cells, % of GMNN control 1.2; inactive.
Depletion of SPAG9 (GeneID 9043) #3 came out at: G2 robust z-score 3.35; G2 cells, % of GMNN control 26.5; inactive.
For TGFB1 (GeneID 7040) #1 the deposit lists G2 robust z-score 0.0289; G2 cells, % of GMNN control 3.17; inactive.
TGFB1 (GeneID 7040) #2 gave G2 robust z-score 0.608; G2 cells, % of GMNN control 7.25; inactive.
TGFB1 (GeneID 7040) #3 gave G2 robust z-score 0.209; G2 cells, % of GMNN control 4.44; inactive.
MDGA2 (GeneID 161357) #1 gave G2 robust z-score -0.74; G2 cells, % of GMNN control -2.24; inactive.
For MDGA2 (GeneID 161357) #2, the values are G2 robust z-score -0.0503; G2 cells, % of GMNN control 2.61; inactive.
After knock-down of MDGA2 (GeneID 161357) #3, the screen gave G2 robust z-score 0.472; G2 cells, % of GMNN control 6.29; inactive.
For CSTF3-DT (GeneID 338739) #1, the values are G2 robust z-score 4.43; G2 cells, % of GMNN control 34.1; inactive.
With knock-down of CSTF3-DT (GeneID 338739) #2 the results were G2 robust z-score 1.51; G2 cells, % of GMNN control 13.6; inactive.
CSTF3-DT (GeneID 338739) #3 gave G2 robust z-score -1.12; G2 cells, % of GMNN control -4.94; inactive.
ID3 (GeneID 3399) #1 showed G2 robust z-score 1.66; G2 cells, % of GMNN control 14.7; inactive.
ID3 (GeneID 3399) #2 scored G2 robust z-score -0.515; G2 cells, % of GMNN control -0.659; inactive.
Depletion of ID3 (GeneID 3399) #3 came out at: G2 robust z-score 0.0795; G2 cells, % of GMNN control 3.53; inactive.
With knock-down of ASIC5 (GeneID 51802) #1 the results were G2 robust z-score 2.71; G2 cells, % of GMNN control 22.1; inactive.
Silencing of ASIC5 (GeneID 51802) #2 came out at: G2 robust z-score 0.0471; G2 cells, % of GMNN control 3.3; inactive.
With knock-down of ASIC5 (GeneID 51802) #3 the results were G2 robust z-score -0.0905; G2 cells, % of GMNN control 2.33; inactive.
After knock-down of CEP57 (GeneID 9702) #1, the screen gave G2 robust z-score -0.191; G2 cells, % of GMNN control 1.62; inactive.
After knock-down of CEP57 (GeneID 9702) #2 the results were G2 robust z-score 0.984; G2 cells, % of GMNN control 9.89; inactive.
After knock-down of CEP57 (GeneID 9702) #3 the results were G2 robust z-score 0.182; G2 cells, % of GMNN control 4.25; inactive.
After knock-down of LOC100288914 (GeneID 100288914) #1, the screen gave G2 robust z-score 0.221; G2 cells, % of GMNN control 4.52; inactive.
With knock-down of LOC100288914 (GeneID 100288914) #2, the screen gave G2 robust z-score 3.28; G2 cells, % of GMNN control 26; inactive.
LOC100288914 (GeneID 100288914) #3 showed G2 robust z-score 1.24; G2 cells, % of GMNN control 11.7; inactive.
